Results are given in words; binding and its absence hold for the method and conditions named. Some results given as binding are weak or reduced against the parent protein; the word gives no strength. Blank lines part the entries; values can stand above or below the binder they belong to.
Key:
[1] = target: His tagged human PD-1 protein (human) (UniProt Q15116); experiment: BLI (Octet RED96)
[2] = target: His tagged human PD-1 protein (human) (UniProt Q15116); experiment: BLI (Octet RED96), antibody on anti-human IgG capture sensors, PD-1-His as analyte
[3] = target: human PD-1 on CHO-K1 cells (human) (UniProt Q15116); experiment: flow cytometry blocking assay: FITC human PD-L1-Fc on human PD-1 CHO-K1 cells (Examples 11 and 15); title: PD-1 Blocking Activity Screening
[4] = target: cyno TIGIT on CHO-K1 cells (cyno); experiment: flow cytometry, CHO-K1 cells expressing cyno TIGIT (binding assay of Example 5)
[5] = target: human TIGIT on CHO-K1 cells (human) (UniProt Q495A1); experiment: flow cytometry, CHO-K1 cells expressing human TIGIT (binding assay of Example 5)
[6] = target: cyno TIGIT on CHO-K1 cells (cyno); experiment: flow cytometry blocking assay of Example 4: biotinylated hPVR-mIg on cyno TIGIT CHO-K1 cells
[7] = target: human TIGIT on CHO-K1 cells (human) (UniProt Q495A1); experiment: flow cytometry blocking assay of Example 4: biotinylated hPVR-mIg on human TIGIT CHO-K1 cells
[8] = target: human TIGIT on CHO-K1 cells (human) (UniProt Q495A1); experiment: flow cytometry competition assay: PVR (CD155) signal on human TIGIT CHO-K1 cells against titrated antibody (Example 3 names human PVR-human Fc, m15, with PE anti-human Fc)
[9] = target: human TIGIT on CHO-K1 cells (human) (UniProt Q495A1); experiment: flow cytometry blocking assay: biotinylated hPVR-mIg on human TIGIT CHO-K1 cells, PE streptavidin (Examples 4 and 6)

Chains of the proteins cited; added tags and fusions are not shown. Lines headed by an entry give the natural chain unless they say otherwise; changes in a name come on top.
UniProt Q15116: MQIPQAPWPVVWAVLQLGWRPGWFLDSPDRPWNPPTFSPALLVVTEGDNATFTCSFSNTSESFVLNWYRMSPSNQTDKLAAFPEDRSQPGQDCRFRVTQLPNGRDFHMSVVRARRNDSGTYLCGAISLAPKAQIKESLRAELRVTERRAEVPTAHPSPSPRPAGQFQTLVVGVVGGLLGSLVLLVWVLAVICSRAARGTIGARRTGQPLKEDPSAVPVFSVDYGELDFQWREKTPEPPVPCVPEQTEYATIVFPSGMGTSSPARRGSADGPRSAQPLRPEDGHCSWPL
UniProt Q495A1: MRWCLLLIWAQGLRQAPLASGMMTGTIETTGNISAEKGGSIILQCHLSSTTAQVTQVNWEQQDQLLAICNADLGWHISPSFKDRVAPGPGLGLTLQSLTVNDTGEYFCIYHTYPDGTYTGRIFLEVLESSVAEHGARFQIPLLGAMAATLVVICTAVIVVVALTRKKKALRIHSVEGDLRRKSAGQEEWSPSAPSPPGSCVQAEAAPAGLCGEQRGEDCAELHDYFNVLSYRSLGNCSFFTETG

binding [1]: binds
binding [2]: binds
binding [3]: binds
B1: PD-01 mab (antibody, V domains shown)
VH: EVQLVESGGGLVQPGGSLRLSCAASGFTFSNFLMSWVRQAPGKGLEWVSTISGGGRDTYYVDSVKGRFTISRDNSKNTLYLQMNSLRAEDTAVYYCAKRTTYSMDYWGQGTSVTVSS
VL: DIQMTQSPSSVSASVGDRVTITCLASQTIGTWLAWYQQKPGKAPKLLIYAATSLADGVPSRFSGSGSGTDFTLTISSLQPEDFATYYCQQFYSIPWTFGGGTKLEIK

binding [1]: binds
binding [2]: binds
B2: PD-02 mab (antibody, V domains shown)
VH: QVQLVQSGAEVKKPGASVKVSCKASDYTFTNSYLYWLRQAPGQGLEWMGGINPSNGGTNFNEKFKTRTTSTRDTSISTAYMELSRLRSDDTVVYYCTRRDYNYDGGFDSWGQGTLVTVSS
VL: DIQMTQSPSSLSASVGDRVTFTCRASSTLYSNYLHWYQQKPGKAPKLLIYRASFLASGVPSRFSGSGSGTDFTLTISSLQPEDFATYYCQQGSSIPLTFGGGTKVEIK

binding [4]: binds
binding [5]: binds
binding [6]: binds
binding [7]: binds
binding [8]: binds
B3: T-08 (antibody, V domains shown)
VH: QVQLVQSGSELKKPGASVKVSCKASGYTFTNYGMNWVRQAPGQGLEWMGWINTYTGEPTYADDFKGRFVFSLDTSVSTAYLQISSLKAEDTAVYYCARAPPYGYDVRFAYWGQGTLVTVSS
VL: DVVMTQSPLSLPVTLGQPASISCRSSQSIVHSNGNTYLEWFQQRPGQSPRVLIYKVSDRFSGVPDRFSGSGSGTDFTLKISRVEAEDVGVYYCFQGSHVPWTFGRGTKLEIK

binding [9]: binds
binding [8]: binds
B4: T-04 (antibody, V domains shown)
VH: EVQLVQSGAEVKKPGATVKISCKVSGYTFTDHTIHWVQQAPGKGLEWMGYIYPRDGSSKYNVKFKGRVTITADTSTDTAYMELSSLRSEDTAVYYCATGMLRWFAYWGQGTLVTVSS
VL: DIQMTQSPSSLSASVGDRVTITCKASQDVFTAVAWYQQKPGKAPKLLIYSASYRYTGVPSRFSGSGSGTDFTFTISSLQPEDIATYYCQQHYSIPLTFGAGTKLEIK

binding [8]: binds
B5: T-09 (antibody, V domains shown)
VH: QVTLKESGPTLVKPTQTLTLTCTFSGFSLSTFAMGVGWIRQPPGKALEWLAHIWWDDDKYYNPALKSRLTITKDTSKNQVVLTMTNMDPVDTATYYCARMDYSYFAWFAYWGQGTLVTVSS
VL: QAVVTQEPSLTVSPGGTVTLTCRSSTGAVTTSNYANWVQQKPGQLFRGLIGGTNNRAPWVPARFSGSLIGDKAALTLSGVQPEDEAEYFCALWYSNHWVFGGGTKLTVL
